Source: PubChem BioAssay AID504834 (National Center for Advancing Translational Sciences (NCATS), 2011)
Hit rate of the full screen: of about 320,000 compounds, about 22,000 (6.9%) were called active. This list was built around the results that the source calls inconclusive (neither active nor inactive); the mix of calls is not that of the screen. The call rests on the fitted dose curve; in most records, active means well fitted inhibition curve with a large enough effect; inconclusive means small, poorly fitted or top-dose-only effect, or another doubt; inactive means no such curve, though single readings can be large or run the other way. A potency beside an inconclusive call is a rough fit, not a confirmed value.

Assay: Primary qHTS for delayed death inhibitors of the malarial parasite plastid, 96 hour incubation
Settings: P. falciparum luciferase reporter growth; series mostly up to 28.7 µM
Outline: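 96 h incubation, 37 C, 5% CO2, of luciferase-reporter P. falciparum-infected RBCs (2% hematocrit, 0.05% parasitemia final) with test compounds; endpoint luminescence.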
Potency means the concentration at half of the fitted maximal effect.

SMILES	Potency
CCN(CC)S(=O)(=O)c1ccc(C)c(NC(=S)NNC(=O)C2CC2)c1	inactive
Cc1cc(C)cc(NC(=O)C(OC(=O)c2sccc2C)c2ccccc2)c1 (stereo not given)	inconclusive: 18.5 µM [inhibitor, single point]
c1cncc(-c2nn3c(Cn4nnc5ccccc54)nnc3s2)c1	inconclusive: 13.1 µM [inhibitor, partial curve]
O=C(/C=C/c1ccc(S(=O)(=O)N2CCOCC2)cc1)NC(=S)Nc1ccc(Cl)cc1Cl	inactive
COC(=O)c1cccc(N(CC(=O)NC2CCCC2)C(=O)CNC(=O)c2cccs2)c1	inactive
COc1ccc(/C=N/NC(=O)c2ccccc2O)cc1Cn1cc([N+](=O)[O-])cn1	inactive
Cc1cccc(C(=O)N2CCCC(CCC(=O)N3CCN(c4ccccn4)CC3)C2)c1 (stereo not given)	inactive
CCN1CCN(S(=O)(=O)c2ccc(Cl)c(C(=O)N(C)C(c3ccccc3)c3ccccc3)c2)CC1	active: 13.1 µM
COCC(=O)N(Cc1cc2ccc(C)c(C)c2n2nnnc12)C1CCCC1	inconclusive: 9.28 µM [inhibitor, partial curve, poor fit]
COc1ccc2c(=O)c3c(=O)n(Cc4ccco4)c(C4CCCCC4)nc3oc2c1	inconclusive: 0.415 µM [inhibitor, full curve, poor fit]
COc1cc(C2C(C#N)=C(N)Oc3n[nH]c(C)c32)cc2c1OCO2 (stereo not given)	inconclusive: 0.0185 µM [inhibitor, full curve, poor fit]
O=C(NCc1ccco1)C(c1ccco1)N(Cc1cccs1)C(=O)Cn1nnc2ccccc21 (stereo not given)	inactive
CCCn1c(C(C)Nc2nc(-c3ccc(Cl)c([N+](=O)[O-])c3)cs2)nc2cc(Cl)c(N3CCCCC3)cc21 (stereo not given)	inconclusive: 10.4 µM [inhibitor, single point]
CCOc1ccc(C(=O)c2nc3c(n2O)CCCCC3)cc1	inactive
CC(=O)c1ccc(N2CCN(C(=S)Nc3ccccc3)CC2)cc1	inconclusive: 11.7 µM [inhibitor, single point]
CSc1cccc(NCc2ccc([N+](=O)[O-])cc2)c1	inconclusive: 16.5 µM [inhibitor, single point]
Cc1cc(Br)ccc1OCCn1ccnc1	inconclusive: 13.1 µM [inhibitor, single point]
CCOC(=O)C1=C(C)NC2=C(C(=O)CCC2)C1c1cn(Cc2ccc(Cl)cc2Cl)nc1-c1ccccc1 (stereo not given)	active: 0.738 µM
CCOC(=O)C1CCN(c2ccc(-c3cccs3)nn2)CC1	inactive
Cc1cc(C)cc(-n2c(C)cc(/C=N/NC(=O)CSc3ncccn3)c2C)c1	inactive
C[N+]1(CC(COCc2ccccc2)OC(=O)Cc2ccccc2)CCOCC1 (stereo not given)	inconclusive: 13.1 µM [inhibitor, partial curve, poor fit]
c1ccc(COc2cncc(-c3cccnc3)c2)cc1	inconclusive: 2.08 µM [inhibitor, full curve, poor fit]
CC(C)c1ccc(NC(=O)COc2ccc(C3SCCS3)cc2)cc1	inactive
Cc1cc(C)c(S(=O)(=O)Nc2cccc(S(=O)(=O)N3CCOCC3)c2)c(C)c1	inactive

Gathered by group: the compounds so far containing a furan ring, fused or not.
SMILES	Potency
COc1ccc2c(=O)c3c(=O)n(Cc4ccco4)c(C4CCCCC4)nc3oc2c1	inconclusive: 0.415 µM [inhibitor, full curve, poor fit]
O=C(NCc1ccco1)C(c1ccco1)N(Cc1cccs1)C(=O)Cn1nnc2ccccc21 (stereo not given)	inactive

The list goes on.

SMILES	Potency
CC12CCC(=O)N1C(C(=O)Nc1cccc(S(=O)(=O)N3CCCCC3)c1)CS2 (stereo not given)	inconclusive: 18.5 µM [inhibitor, single point]
CC(C)(C)NC(=O)CCN(/N=C/c1ccccc1)C1=NS(=O)(=O)c2ccccc21	inconclusive: 18.5 µM [inhibitor, single point]
CC(=O)OC1OCCOC1NC(=S)NCc1ccco1 (stereo not given)	inactive
Cc1ccc(NC(=O)COc2cccc(-n3cnnn3)c2)cc1[N+](=O)[O-]	inactive
COc1ccc([N+](=O)[O-])cc1COc1cc(C)cc2oc(=O)cc(-c3ccccc3)c12	inconclusive: 1.47 µM [inhibitor, partial curve, poor fit]
Cc1ccc(S(=O)(=O)/C(=C\N(C)C)c2cnc(Cl)s2)cc1	inconclusive: 18.5 µM [inhibitor, single point]
Nc1cc(=O)[nH]c(SCc2cccc3ccccc23)n1	inactive
CCCCC(=O)N(c1ccc(OC)cc1)C1C=CS(=O)(=O)C1 (stereo not given)	inconclusive: 0.0104 µM [inhibitor, full curve]
CN1CCN(CC(=O)Nc2ccc(S(=O)(=O)N(C)C)cc2)CC1	inconclusive: 16.5 µM [inhibitor, single point]
O=C(COC(=O)c1cnccn1)NCc1ccccc1	inconclusive: 4.15 µM [inhibitor, single point]
CN(C)C(CNc1ncnc2sccc12)c1ccccc1 (stereo not given)	inconclusive: 16.5 µM [inhibitor, single point]
COc1ccccc1CC(=O)Nc1cc(Cl)ccc1O	inconclusive: 0.131 µM [inhibitor, full curve, poor fit]
Cc1nc2ccccc2nc(C)c1=NOCc1ccccc1Cl	inconclusive: 10.4 µM [inhibitor, single point]
COc1ccccc1NC(=O)C(C)NS(=O)(=O)c1ccc(Cl)cc1 (stereo not given)	inconclusive: 0.0026 µM [inhibitor, full curve, poor fit]
NC(=O)N/N=C/c1cn(-c2ccccc2)nc1-c1ccccc1	inconclusive: 0.928 µM [inhibitor, single point]
Cc1ccc(-c2n[nH]c(=S)n2/N=C/c2ccc(C)s2)cc1	active: 11.7 µM
COc1ccc(-c2nc3n(n2)C(c2cccnc2)C(C(N)=O)=C(C)N3)cc1 (stereo not given)	active: 11.7 µM
COC(=O)Cn1c(=NC(=O)c2ccc(OC)cc2)sc2cc(OC)ccc21	inconclusive: 14.7 µM [inhibitor, single point]
O=C(c1ccc(=O)[nH]c1)N1CCN(S(=O)(=O)c2ccccc2)CC1	inactive
CCN(CC(=O)Nc1ccccc1OC)C(=O)c1cc(-c2ccccc2)nn1-c1ccccc1	inconclusive: 18.5 µM [inhibitor, single point]
COc1cccc(Oc2ccc(S(=O)(=O)N3CCCC3)cc2[N+](=O)[O-])c1	inconclusive: 11.7 µM [inhibitor, single point]
CCOC(=O)C1=C(COC(=O)COc2ccc(C(=O)CC)cc2)NC(=O)NC1C (stereo not given)	inactive
Cc1ccc(NC(=O)Nc2ccon2)cc1Cl	inactive
CC(=O)c1cccc(OCC(=O)N2CCN(CC(=O)Nc3cccc(F)c3)CC2)c1	inconclusive: 18.5 µM [inhibitor, single point]

SMILES	Potency
O=S(=O)(c1ccc(NCCOc2ccccc2)nc1)N1CCCC1	inconclusive: 18.5 µM [inhibitor, single point]
Cc1c(Cl)cccc1NC(=O)CSc1nc2c(c(=O)[nH]1)CCCC2	inconclusive: 9.28 µM [inhibitor, single point]
Cc1ccc(Nc2c(-c3ccco3)nc3nc(C)cc(C)n23)cc1	inconclusive: 7.38 µM [inhibitor, partial curve, poor fit]
Cc1cccc(NC(=O)CSc2cccc3cccnc23)c1C	inconclusive: 18.5 µM [inhibitor, single point]
Cc1ccc(/C(N)=N/OC(=O)C23CC4CC(CC(C4)C2)C3)cc1	inconclusive: 18.5 µM [inhibitor, single point]
CCN(CC)c1c([N+](=O)[O-])c(=O)n(CC)c2ccccc12	inconclusive: 11.7 µM [inhibitor, partial curve]
CC1=C(C(=O)NCc2ccccc2)C(c2ccccc2OCC(N)=O)NC(=O)N1 (stereo not given)	inconclusive: 0.0329 µM [inhibitor, full curve, poor fit]
COc1cccc(CNC(=O)C2Cc3cc(S(=O)(=O)N4CCCC4)ccc3N2C(C)=O)c1OC (stereo not given)	active: 14.7 µM
O=C1CSC(=Nc2cccc(C(=O)O)c2)N1	inconclusive: 8.28 µM [inhibitor, partial curve, poor fit]
COc1ccc(-n2c(=O)cc(N3CCc4ccccc43)[nH]c2=O)cc1	inconclusive: 1.65 µM [inhibitor, partial curve, poor fit]
CCCCC12CN3CCN(CC(C3)/C1=N\NC(=O)Nc1ccccc1)C2	inconclusive: 18.5 µM [inhibitor, single point]
COc1cc(/C=C/C(=O)NCc2cccnc2)cc(OC)c1OC	inactive
COc1ccc(CNC(=O)[C@]2(C)CCC[C@@]3(C)C4CC[C@@]5(C)C[C@]4(CCC32)CC5=O)cc1 (stereo not given in full)	inconclusive: 14.7 µM [inhibitor, single point]
O=C(C1CCCCN1S(=O)(=O)c1ccccc1[N+](=O)[O-])N1CCOCC1 (stereo not given)	inconclusive: 0.0738 µM [inhibitor, full curve, poor fit]
COc1cccc(CNCc2ccc3c(c2)OCO3)c1	inconclusive: 18.5 µM [inhibitor, single point]
Cn1nc(-c2ccc(S(N)(=O)=O)s2)cc1C(F)(F)F	inactive
O=C(CSc1nccn1-c1ccc(Cl)cc1)Nc1ccc2c(c1)OCO2	inactive
Cc1nn(CC(=O)OCC(=O)c2ccc(OC(F)F)cc2)c(C)c1[N+](=O)[O-]	inactive
Cc1cc2c(=O)[nH]cnc2s1	inconclusive: 18.5 µM [inhibitor, single point]
O=C(CSc1nc2ncc(Cl)cc2[nH]1)Nc1ccccc1-c1ccccc1	inconclusive: 20.8 µM [inhibitor, single point]
CC(=O)OCCCCCCCCCCC[N+]1(C)CCCCC1	inactive
Cc1ccsc1/C=N/Nc1cccc(C(=O)O)c1	inconclusive: 4.15 µM [inhibitor, single point]
